Measured values as given in paper PMC11000164.
No constants are given. Whether binding was seen depends on the method and setting. In cells and extracts the contact can be indirect. Some binding calls cover weakened binding; strength is not graded here. Sequences can lack the tags named with a protein.

T1: Cnd2-3C-ProtA2 (fission yeast condensin subunit Cnd2 with a 3C-cleavable protein A tag) (Schizosaccharomyces pombe) (UniProt Q9Y7R3)
T1 sequence: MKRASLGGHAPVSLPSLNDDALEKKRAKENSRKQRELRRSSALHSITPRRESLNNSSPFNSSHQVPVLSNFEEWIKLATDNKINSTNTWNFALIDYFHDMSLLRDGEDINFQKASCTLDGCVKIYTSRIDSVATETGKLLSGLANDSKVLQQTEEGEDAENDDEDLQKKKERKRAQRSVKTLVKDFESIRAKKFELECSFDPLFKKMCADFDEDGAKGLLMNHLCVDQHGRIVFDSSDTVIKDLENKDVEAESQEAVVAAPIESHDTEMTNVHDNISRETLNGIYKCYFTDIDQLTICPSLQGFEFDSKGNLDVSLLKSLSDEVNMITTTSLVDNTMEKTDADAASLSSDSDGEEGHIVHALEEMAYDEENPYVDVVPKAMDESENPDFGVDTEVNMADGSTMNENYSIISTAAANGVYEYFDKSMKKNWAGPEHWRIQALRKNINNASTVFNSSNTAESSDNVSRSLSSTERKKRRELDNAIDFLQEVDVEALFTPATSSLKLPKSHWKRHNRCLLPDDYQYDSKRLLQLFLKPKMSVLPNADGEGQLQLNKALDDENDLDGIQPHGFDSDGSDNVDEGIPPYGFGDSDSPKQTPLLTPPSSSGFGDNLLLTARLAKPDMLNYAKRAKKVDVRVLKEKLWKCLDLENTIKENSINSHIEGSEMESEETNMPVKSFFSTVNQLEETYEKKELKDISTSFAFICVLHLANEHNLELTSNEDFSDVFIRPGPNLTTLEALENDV


Biological target: T1, Cnd2-3C-ProtA2 (fission yeast condensin subunit Cnd2 with a 3C-cleavable protein A tag) (Schizosaccharomyces pombe)
Test: pull-down; IgG pull-down: cleared lysate of budding yeast co-overexpressing the five subunits, rabbit IgG agarose beads capture Cnd2-ProtA2, 4°C 1 h; washes in 40 mM Tris-HCl pH 7.5, 300 mM NaCl, 10% glycerol, 2 mM DTT; bead-bound protein on SDS-PAGE, Coomassie staining

binding | Binder
binds | Cut14-Pk3 (fission yeast condensin subunit Cut14 with a Pk epitope tag) (protein, UniProt P41003 1-1172) MKIEELIIDGFKSYAVRTVISNWDDQFNAITGLNGSGKSNILDAICFVLGITNMSTVRAQNLQDLIYKRGQAGITRASVTIVFNNRDPASSPIGFENHPQVSVTRQIIMGGTSKYLINGHRALQQNVQNLFQSVQLNINNPNFLIMQGRITKVLNMKATEILSMIEEASGTRMFEERKEKAFRTMQRKEAKVEEINTLLREEIEPRLTKLRTEKKTFLEYQHIYNDLERLSHLCTAYDYYKLSLKVEELTVQASQKHSHIAEMESSLQTSKQEVLILKEKIKKIEDERMRQMSVSSDRTLDSQLQTVNENITRISTSIELKNTALEEEHGDLQQIRGKAKELETLLRGKRKRLDEVLSVYEKRKDEHQSISKDFKSQEELISSLTTGLSTTEGHETGYSRKLHEARDTLNDFKAEKETNRLKLEGLNKQISLTKPKKAEATKRCDQLNREIDILQNHVEKLKMSLKNTNSDITGEDVLQQKLKQLAKDRGNLLNELDALKSKLAYMEFTYTDPTPNFDRSKVKGLVAQLLTLNEENYDKQTALEITAGGRLYNLIVETEKIGAQLLQKGNLKRRVTIIPLNKITSFVASAERVGAAKKISNNKAQLALELIGYDDELLPAMQYVFGSTLVCDTPESAKKVTFHPSVKLKSVTLDGDVYDPSGTLTGGSVNKSAGPLLQIQKLNSLQLKLQVVTSEYEKLETQLKDLKTQNANFHRLEQEIQLKQHELTLLIEQRETDSSFRLLSDYQQYKDDVKDLKQRLPELDRLILQSDQAIKKIERDMQEWKHNKGSKMAELEKEFNQYKHKLDEFTPILEKSENDYNGVKLECEQLEGELQNHQQSLVQGESTTSLIKTEIAELELSLVNEEHNRKKLTELIEIESAKFSGLNKEIDSLSTSMKTFESEINNGELTIQKLNHEFDRLEREKSVAITAINHLEKENDWIDGQKQHFGKQGTIFDFHSQNMRQCREQLHNLKPRFASMRKAINPKVMDMIDGVEKKEAKLRSMIKTIHRDKKKIQDTVKSIDRFKRSALEKTWREVNSSFGEIFDELLPGNSAELQPPENKEFTDGLEIHVKIGSIWKDSLAELSGGQRSLVALALIMSLLKYKPAPMYILDEIDAALDLSHTQNIGRLIKTKFKGSQFIIVSLKEGMFTNANRLFHVRFMDGSSVVQAR
binds | Cut3 (fission yeast condensin subunit) (protein, UniProt P41004 1-1324) MSDKGIFRTSSTPSIVDVTPDRGERPRKLVRSVLESPSQKDVASIVKIEQTPSRPFFNDFLKKRITDSLNERPNLLNKFMSAQDGTPSKSTGFNERSSQLVSEFTTTEDIENCEETTQVLPPRLVVYELRLTNFKSYAGTQIVGPFHPSFSSIVGPNGSGKSNVIDALLFVFGFRASKLRQSKASALIHKSATHPSLDSCDVEITFKEVNSDFTYVDGSELTVRRTAYKNNTSKYFVNGVESSFSAVSNLLKEKGIDLNHKRFLILQGEVESIAQMKPRAISEGDDGLLEYLEDIIGTSKYKPIIEENMQELSNSDDICAEKESRLKLVLSEKAKLEDSKNSVLSFLKDENELFMKQNQLYRTILYETRNKKTLVQNLLNSLEGKLQAHLEKFEQTERDISEKNEEVKSLREKAAKVKNDCTSEKKTRQSYEQQTVKIEEQLKFLLNKEKKLKKSIEALSFEKSEAENSLSSHDIDSQKLNSEIADLSLRLQQEELSLDDIRKSLQGKTEGISNAIEEKQKAMAPALEKINQLTSEKQILQVELDMLLNKENDLINDVESSQSSLDKLRNDAEENRNILSSKLKVLSDLKGEKKDVSKNIERKKETVHNTYRNLMSNRTKLEEMKASLSSSRSRGNVLESLQRLHESDNLNGFFGRLGDLATIDEAYDVAISTACPALNHIVVDNIETGQKCVAFLRSNNLGRASFIILKELAQKNLARIQTPENVPRLFDLLRFNDQKFAPAFYNVLQNTLVAKNLEQANRIAYGKTRWRVVTLSGQLIDKSGTMTGGGTRVKKGGMSSAITSDVSPASVETCDKQVQLEDTRYRQHLSELESLNQRFTEISERIPSAELEISKLQLDVSACDRLVAGEERRILQLKSDLKSIRNNNERKRNLQNKISNMDKEVEAININNEGLVTEIKTLQDKIMEIGGIRYRIQKSKVDDLHEQLKFVKDKLNKMSFKKKKNEQRSQSFQVELSNLTSEYDTTTESIATLKTELQSLNKYVDEHKSRLREFENALWDINSSIDELVKFIEFESKQMNSVKAERIELENQIQEQRTALSEVGNNENKYLKLMSNLKLHNLTEFCDQTTMDSTFPEYSEDELSSVDKSELVSNISVLKKKTEDREVDINVLSEYRRCNKEAEKRDSDYQSELQKRTDLKKVVTDLQSQRLDEFMYGFGIISMKLKEMYQIITMGGNAELELVDSLDPFSEGVLFSVMPPKKSWKNISNLSGGEKTLSSLALVFALHNYKPTPLYVMDEIDAALDFKNVSIVANYIKERTKNAQFIVISLRSNMFELSSRLVGIYKTANMTKSVTINNKEILTD
binds | Cnd3 (fission yeast condensin subunit) (protein, UniProt Q10429 1-875) MSCIQIISSSQTSIAGHRKLCNKLFTLRTQEGFETDILRALNIILTVKKGNSNADRVLRFLVTFVNYLQQKDPEIDIVQPILKHILRGLDAKDKTVRYRCCQIIARVVNCVKEIDDDLYNTLKEKLLSRVLDRESIVRLEAVVALSRLQEDTGDEENDVRNILLFLLQNDPSSEVRRSVLLNIEVSNSTLPFILERARDVDAANRKCVYARVLPKIGDFRYLSIKKRVRILKWGLNDRDESVEKAAADMLAYQWIENADNNLLELLERLDVSNNSDVAVLAIKKFFDVRVDSLSQLEFPEQFWLELTAESSLLARTFNEICIEKNYTDLLDKMPEVVQLTYYIERQYVSLRDKSSYDESCFIIEQLLYIGLSQDMVDEIGRRKLLKSLTNSLSTMALPDSLISLHIELLRKLCSSENDFCSLLVEIITEVFEQGHSQNQTEEQGNSNAPELNKNDYEGEEITVSQKSPSPSLPPNELNEPEPDDMDGYKEAFNELRCLSYVQCLFENITSSLNENLYMVDMLKTLIIPAVRSHDLPIREKGLECLSLVCLLNADLAFENVPLYLHCYEKGSVVLKCTAIRTLTDMLIQHGKAKFTEYEDAISSILFEALGEFENAELQTLGAEAIAKLLVILHYRDELFLKPLIIQYFEPNTVDNHALRQVLGYFFPVYAFGAHENQWRIATIFCDALLSLLEIYRDLDEDDVQLSIGHIAQQMLDWTDNEKLYERKTQTGDDYIALNHNVHLHLANMIFESLPNASEGKERKFMISLLGKLKIPTDLPSSDYQRTKRKLETYESHGFTMDSTSLSILAKFERMLLQNEEARSKFEETEEERLMENAEENEHAGAEAISGEIIPDTVEANMEDEEEVYVKQEEDL
binds | Cnd1 (fission yeast condensin subunit) (protein, UniProt O94679 1-1158) MSLDLLSRLKKYIHDEENSDLDSIYAECENAGLTAVVNDVIDTLLLGTSSCFDEDCLEKLFAICSHFADLSSSVRNKVYDLLTSNISSESAILEDMISANATDFTVPQTNLETTGIAFQLTVNSLSSSNQLSVIRSSTNTVKGRKKNPTTNSNWNGISHVNALLDAIITLFQKKLSRVWTTSSERDMFLSLFLKPIYTLMESEINIKNASFRSRLFNIIGLAVQFHNHTTAAETNIIQNLQYFEHLSEYAADLVHIVTVQFNSVTLAEGIIRTLCSLEFNDNDVKGPKQVALFLVRLSSLIPNLCLKQLTQLVKLLDSESYTLRCAIIEVLANVVIDQIHDEAQNEMSESVPATVQSLMDLLSERLLDISPYCRTKVLHVFIKIFDLPIKYPRKRQEIAELVIRCLQDRSSHVRRNAIKLFSKLLTTHPFSVMHNGLLTRNIWEKGLSIIEEQLNSLQPKQQEKVVDSELEVDENLLEDATMIQDDESHEGESHLENSLSEYVDSVPAEEIVKVNLTKRFYLEALQYIDIVEAGAKIISQLLFAKNKSEVIESMDFFVFCNSFGISSSKLYIKKMIHLIWVKGTSDEGNNIQNHVLSCYKTLFFEPPPNSGTNEAANYIARNLISLTYDASLAELTSLEQMLCILMKDGYFSHLVITKLWQVYSYQKKDISRTQRRGSIIVIGMLALGNTDVVMQGLDHLIQIGLGPPGLEDLVLARYTCIAIKRIGKDASGSSNINFPNSHTLCQKLCMLLLRPSFSEEWFGLEEQAIEAIYAVAKHPDELCTNIILLLTKQLFKPSNHENTTSNDDHAMDEDLDDSPEEETLKDEEEIGIRLAHLIFLVGHVAIKQLVYIEYCEAEFKRRKADAERLAVQNSNNPINGQETSEYDLITGTSEDDFSEAMTFIRERELLYGENSLLSRFAPLVVELCSNHKSHNNQSLLLAASLTLSKFMCLSNNFCMEHLPLLITILEKCDNPIIRNNLVIGLADLTVCFNHFIDEISEYLYRRLMDEESSVKKTCFMTLAFLILAGQIKVKGQLGIMARSLEDEDARISDLARMFFTDFAAKDNSVYNNFIDIFSVLSRSAEEQDEDDAKFKRIIRFLTSFIEKERHTKQLAERLAARLDRCKTQRQWDHVVYALSLLPHKADNIQKLIDDGYHE
